In patent US8236540B2, “Isolated luciferases and the use thereof” (Bayer Intellectual Property GmbH, priority 2000, dated 2012):
Values joined by “and” are separate entries in the source; they are usually repeats but may differ in a detail not shown here. Identical values can stand only once. “Also recorded” adds a separate entry of the source.

Experiments:
[1] = tested on: CHO cells; test: Secretion of the luciferases from CHO cells (luciferase activity in the medium over time); format: cell-based; conditions: activity in medium 0 h to 5 h
[2] = Dependence of the luciferase activity on the temperature (CHO cell supernatants); format: biochemical; conditions: CHO cell supernatant, measured between 0 and 47° C., 9.5 kV for 30 seconds
[3] = Emission spectra of the luciferases following bacterial expression; format: biochemical, E. coli BL21(DE3); conditions: bacterial lysate 100 μl + 50 μl coelenterazine (10^-4 M)
[4] = tested on: bacterial cells; test: Secretion of the luciferases in connection with bacterial expression; format: cell-based

With “Firefly luciferase: Firefly luciferase used as a positive control for nonsecreted luciferase [reference compound]” the “secretion on expression in eukaryotic (CHO) cells” value (shortened to “secretion on expression”) [1] was “not secreted”.

B1: Lu22: coelenterazine-dependent secreted luciferase from Metridia longa, amino acid sequence SEQ ID NO: 6 (protein, listed as Metridia longa)
chain: MGVKLIFAVVCVAVAQAATIQENFEDIDLVAIGGSFASDVDANRGGHGGHPGKKMPKEVLMEMEANAKRAGCHRGCLVCLSHIKCTAQMQKFIPGRCHSYAGDKDSAQGGIAGGAIVDIPEIAGFKEMKPMEQFIAQVDLCEDCTTGCLKGLANVHCSDLLKKWLPSRCKTFASKIQSQVDTIKGLAGDR
For B1, the “temperature optimum for the luciferase activity” value (from here on “temperature optimum”) [2] was at most 4 °C, the “wavelength of maximum emission resulting from the substrate transformation” value (shortened to “wavelength of maximum emission resulting”) [3] was “about 490 nm” and the “secretion on expression” value [1] was “secretory luciferases; also recorded: secreted”. For the same molecule, the “secretion in connection with bacterial expression” value (from here on “secretion in connection”) [4] was “No secretion”.

B2: Lu164: coelenterazine-dependent secreted luciferase from Metridia longa, amino acid sequence SEQ ID NO: 4 (protein, listed as Metridia longa)
chain: MDIKVVFTLVFSALVQAKSTEFDPNIDIVGLEGKFGITNLETDLFTIWETMEVMIKADIADTDRASNFVATETDANRGKMPGKKLPLAVIMEMEANAFKAGCTRGCLICLSKIKCTAKMKVYIPGRCHDYGGDKKTGQAGIVGAIVDIPEISGFKEMAPMEQFIAQVDRCASCTTGCLKGLANVKCSELLKKWLPDRCASFADKIQKEVHNIKGMAGDR
In the case of B2, the “temperature optimum” value [2] is reported as 22 °C, the “temperature optimum” value ([2]; listed as Lu1 64) is reported as 27 °C and the “wavelength of maximum emission resulting” value [3] is reported as “about 490 nm”. The “secretion on expression” value [1] was “secretory luciferases; also recorded: secreted” and the “secretion in connection” value [4] was “No secretion”.

B3: LuAL: coelenterazine-dependent secreted luciferase from Metridia longa, amino acid sequence SEQ ID NO: 2 (protein, listed as Metridia longa)
chain: MDMRVIFALVFSSLVQAKSTEFDPNINIVGLEGKFGITNLETDLFTIWETMDVIKSDITDTDRVSNFVATETDANRGKMPGKKLPLAVIMEMEANAFKAGCTRGCLICLSKIKCTAKMKVYIPGRCHDYGGDKKTGQAGIVGAIVDIPEISGFKEMAPMEQFIAQVDLCATCTTGCLKGLANVKCSELLKKWLPGRCASFADKIQKEVHNIKGMAGDR
With B3 the “temperature optimum” value [2] was 27 °C and 22 °C, the “wavelength of maximum emission resulting” value [3] was “about 490 nm” and the “secretion on expression” value [1] was “secretory luciferases; also recorded: secreted”. The “secretion in connection” value [4] was “No secretion”.
